The shares of active, inactive and inconclusive entries below differ from those in the screen. For some assays here: Potencies of inconclusive entries are doubtful fits and often do not repeat. The source made the active and inactive calls. Unless noted, calls follow the shape of the full dose curve.
Target: D(2) dopamine receptor (Homo sapiens) (UniProt P14416)
Experiment: Dopamine D2 receptor (DRD2) small molecule agonists, cell-based qHTS assay (AID 1963594); also: nearly all actives have a fitted effect of over 35% in size; also: potency is read from the fitted curve at half-maximal effect
Conditions: HEK293-DRD2 cAMP HTRF, agonist mode, 30 min; activation: at 92.4 µM (top of the series) unless noted
Method in brief: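 cAMP accumulation in DRD2-HEK293 cells measured by HTRF after 1 h detection; compounds added 10 min before NKH477 (200nM […]) forskolin-analogue stimulation, 30 min at room temperature, with Ro20-1724 present at 0.1 mM final.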
% is scaled to controls: 0 for no effect and ±100 for the full control effect.

By UniProt entry, the sequences of proteins in these tests, tags left out.
UniProt P14416, whole entry, looked up: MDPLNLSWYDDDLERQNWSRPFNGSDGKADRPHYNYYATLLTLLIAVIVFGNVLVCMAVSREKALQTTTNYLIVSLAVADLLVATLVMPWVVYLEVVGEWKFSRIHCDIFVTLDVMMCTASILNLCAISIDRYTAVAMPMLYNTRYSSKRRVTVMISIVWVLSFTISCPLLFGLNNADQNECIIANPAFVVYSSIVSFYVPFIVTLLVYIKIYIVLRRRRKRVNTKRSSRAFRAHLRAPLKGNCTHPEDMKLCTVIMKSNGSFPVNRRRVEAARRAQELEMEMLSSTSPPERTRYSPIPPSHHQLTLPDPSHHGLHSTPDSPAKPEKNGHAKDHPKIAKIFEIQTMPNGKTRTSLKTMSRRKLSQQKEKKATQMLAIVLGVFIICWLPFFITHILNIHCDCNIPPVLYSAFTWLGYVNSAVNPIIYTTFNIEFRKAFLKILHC

Compound | Potency | activation
NS(=O)(=O)C(F)(F)C(F)(F)C(F)(F)C(F)(F)C(F)(F)C(F)(F)C(F)(F)C(F)(F)F | inconclusive: 68.6 µM [rising, single point] | –
O=C(OC1CCCCC1)c1ccccc1C(=O)OC1CCCCC1 | inactive | –
CCOC(=O)C(Cl)Cc1cc(-n2nc(C)n(C(F)F)c2=O)c(F)cc1Cl (stereo not drawn) | – | inconclusive: -27.1%
CCCCCCC(=O)CCCCCC/C=C/C[C@@H](O)[C@H](O)[C@@](N)(CO)C(=O)O | – | inconclusive: 21.2% [at 19 µM]
CC(C)(C)c1ccc(CSc2cnn(C(C)(C)C)c(=O)c2Cl)cc1 | – | inconclusive: -16%

Target: D(2) dopamine receptor (Homo sapiens) (UniProt P14416)
Experiment: Dopamine D2 receptor (DRD2) small molecule antagonists, cell-based qHTS assay (AID 1963595; active = well fitted inhibition curve with a large enough effect in the signal ratio in the repeat runs, with a control signal flat; inconclusive = weak or mixed curves, or effect the other way; the % refers to the signal ratio)
Conditions: HEK293-DRD2 cAMP HTRF antagonist mode; activity change, negative = inhibition: at 92.4 µM (top of the series) unless noted
Method in brief: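 Antagonist mode in DRD2-HEK293 cells: after compound addition with 0.1 mM Ro20-1724, cells received quinpirole (12 nM) and NKH477 (200 nM) for 30 min at room temperature; HTRF cAMP read after 1 h detection.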

Compound | Potency | activity change, negative = inhibition
CCCCOC(=O)[C@@H](C)Oc1ccc(Oc2ccc(C#N)cc2F)cc1 | inactive | –
O=C(OC1CCCCC1)c1ccccc1C(=O)OC1CCCCC1 | – | inconclusive: -28%
Cc1ccccc1[N+](=O)[O-] | – | inconclusive: -22.8%
